Assays:
[1] = system: COC Apt-AuNP (biotin-ended COC aptamer) (DNA, aptamer) AGGAATTCAGATCTCCCTGCAGTTCGAGGAAGAATAGACCTGCCTTCTAATAGCTCGAGGAGCTCAGGATCCCG; assay: competitive lateral flow assay
[2] = system: MET Apt-AuNP (biotin-ended MET aptamer) (DNA, aptamer) AGGAATTCAGATCTCCCTGCAGAAAACAGACCACCCACTTTGAATCCACTTGACTCGAGGAGCTCAGGATCCCG; assay: competitive lateral flow assay

CN1CC[C@]23c4c5ccc(O)c4O[C@H]2[C@@H](O)C=C[C@H]3[C@H]1C5
binding [1]: no
binding [2]: no
